Among all 390,000 compounds or so, about 820 (0.21%) were called active. Inconclusive means that the source gave no clear call. Such entries were picked first, then a sample of the others. The call rests on the fitted dose curve; in most records, active means well fitted inhibition curve with a large enough effect; inconclusive means small, poorly fitted or top-dose-only effect, or another doubt; inactive means no such curve, though single readings can be large or run the other way. Potencies beside an inconclusive call are fits to weak or partial responses and may not hold up.
Biological target: Histone acetyltransferase KAT2A (Homo sapiens) (UniProt Q92830)
Assay: qHTS Assay for Inhibitors of GCN5L2
Settings: GCN5L2 HAT assay, ThioGlo1 CoA-SH fluorescence; activity change, negative = inhibition: at 58.9 µM (top of the series) unless noted
Outline: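 Fluorescence readout, Ex340nm/Em540nm: ThioGlo1 (50uM final) reacts with free CoA thiol released as 20nM GCN5L2 acetylates H3(1-25) peptide (75uM) using acetyl-CoA (70uM). Compound and enzyme sat 15 min beforehand; 20 min room-temperature reaction.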
On the % scale 0 is the no-effect control and ±100 the full control effect; potency means the concentration at half of the fitted maximal effect.

The chains behind the UniProt entries cited, without tags or fusion partners.
UniProt Q92830, whole entry, looked up: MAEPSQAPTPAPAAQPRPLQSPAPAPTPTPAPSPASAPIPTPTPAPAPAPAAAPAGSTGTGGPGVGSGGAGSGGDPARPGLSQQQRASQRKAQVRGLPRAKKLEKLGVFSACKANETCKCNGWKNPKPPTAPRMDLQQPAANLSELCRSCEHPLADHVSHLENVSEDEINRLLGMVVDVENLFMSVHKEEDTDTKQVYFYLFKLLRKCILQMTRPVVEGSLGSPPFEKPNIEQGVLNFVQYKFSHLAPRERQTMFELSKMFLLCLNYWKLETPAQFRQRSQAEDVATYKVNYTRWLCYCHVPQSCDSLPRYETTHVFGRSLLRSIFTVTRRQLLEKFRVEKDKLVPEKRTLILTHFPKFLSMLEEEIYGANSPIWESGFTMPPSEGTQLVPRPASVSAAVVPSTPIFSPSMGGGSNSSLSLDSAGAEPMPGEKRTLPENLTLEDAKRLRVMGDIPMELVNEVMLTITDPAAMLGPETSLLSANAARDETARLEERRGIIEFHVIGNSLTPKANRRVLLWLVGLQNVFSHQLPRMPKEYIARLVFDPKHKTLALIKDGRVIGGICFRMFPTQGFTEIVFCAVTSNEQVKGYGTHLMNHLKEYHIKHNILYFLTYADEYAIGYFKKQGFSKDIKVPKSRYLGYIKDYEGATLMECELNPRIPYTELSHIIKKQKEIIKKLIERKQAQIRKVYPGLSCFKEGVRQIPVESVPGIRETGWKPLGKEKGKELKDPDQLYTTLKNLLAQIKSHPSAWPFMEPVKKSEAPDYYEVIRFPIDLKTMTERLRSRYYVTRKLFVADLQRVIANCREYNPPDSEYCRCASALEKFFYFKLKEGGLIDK

Structure (SMILES) | Potency | activity change, negative = inhibition
Cc1ccc(-c2csc(NS(=O)(=O)c3cccc(F)c3)n2)o1 | inconclusive: 25.1 µM [inhibitor, single point] | –
COc1ccc(N2CCN(C(=O)c3[nH]c4ccc(OC)cc4c3C)CC2)cc1 | – | inactive: -8%
COc1ccccc1C(=O)NC(=O)Nc1ccc(-c2cc(C(F)(F)F)nn2-c2ccccc2)cc1 | – | inactive: -6.12%
NC(=S)NCCC[C@H](N)C(=O)O | inconclusive: 17.8 µM [inhibitor, partial curve] | –
O=C(Nc1cccc(-c2ccc(N3CCOCC3)nn2)c1)c1ccccc1 | inconclusive: 1.58 µM [inhibitor, full curve, poor fit] | –
CC(C)(C)CC(C)(C)c1ccc(OCOCCOCCO)c(Cc2cc(C(C)(C)CC(C)(C)C)cc(Cc3cc(C(C)(C)CC(C)(C)C)ccc3OCOCCOCCO)c2OCOCCOCCO)c1 | – | inactive: 0% [at 21.4 µM]
COC(=O)[C@@H]1C[C@@]2(O)[C@@H](O)[C@@H](O)[C@@H](O)C[C@H]2N1Cc1ccc(Cl)cc1 | inconclusive: 1 µM [inhibitor, full curve, poor fit] | –
S=c1nc(-c2cc(Cl)ccc2Cl)[nH][nH]1 | active: 3.55 µM | –
COc1cc(N=Nc2cccc(S(N)(=O)=O)c2)c2ccccc2c1N | – | inactive: -9.96%
Cc1nc2ccc(-c3nc4ccc(N)cc4[nH]3)cc2[nH]1 | inconclusive: 22.4 µM [inhibitor, partial curve] | –
COc1ccc(NCc2ccc3c(c2)OCO3)cc1Cl | inconclusive: 7.08 µM [inhibitor, single point] | –
CN1CCN(S(=O)(=O)c2ccc(NC(=O)C(C)(C)C)cc2)CC1 | – | inconclusive: -86% [inhibitor] [at 0.501 µM]
CC(=O)Nc1sc2c(c1-c1nc3ccccc3s1)CCN(C(C)C)C2 | – | inactive: -13.6%
COc1cccc(-c2nc(CS(=O)(=O)CC(=O)NCCc3cc(OC)ccc3OC)c(C)o2)c1 | – | inactive: -1.95%
CCOc1ccccc1OCCCC(=O)Nc1nc2ccccc2[nH]1 | – | inactive: -17.8%
Cc1[nH]nc(Nc2ccc(Br)cc2)c1[N+](=O)[O-] | – | inactive: -0.452%
CCOc1cc(/C=C2\C(=O)N(c3nc(-c4ccc(Br)cc4)cs3)N=C2c2ccccc2)ccc1O | inconclusive: 17.8 µM [inhibitor, partial curve] | –
COCCC(=O)Nc1c(-c2ccccc2)c2cc(Br)ccc2[nH]c1=O | inconclusive: 11.2 µM [inhibitor, partial curve] | –
CCN(c1ccccc1)S(=O)(=O)c1cc(C(=O)OC2CCOC2=O)ccc1C (centres undefined) | inconclusive: 39.8 µM [inhibitor, single point] | –
CCOc1ccccc1NC(=O)NC(C)c1ccncc1 (centres undefined) | inconclusive: 39.8 µM [inhibitor, single point] | –
Cc1ccc(OCCCCn2nnc3sc4c(c3c2=O)CCC(C)C4)cc1 (centres undefined) | inconclusive: 35.5 µM [inhibitor, single point] | –
Cc1nn(-c2nnc(C)c(=O)[nH]2)c(C)c1SCC(=O)Nc1ccc(F)cc1 | inconclusive: 2.82 µM [inhibitor, partial curve] | –
COc1ccc(CC(=O)N2CCc3cc(OC)c(OC)cc3C2O)cc1OC (centres undefined) | inconclusive: 4.47 µM [inhibitor, single point] | –

As a short view, four of the compounds above:
Structure (SMILES) | Potency | activity change, negative = inhibition
Cc1nc2ccc(-c3nc4ccc(N)cc4[nH]3)cc2[nH]1 | inconclusive: 22.4 µM [inhibitor, partial curve] | –
COc1ccc(NCc2ccc3c(c2)OCO3)cc1Cl | inconclusive: 7.08 µM [inhibitor, single point] | –
CN1CCN(S(=O)(=O)c2ccc(NC(=O)C(C)(C)C)cc2)CC1 | – | inconclusive: -86% [inhibitor] [at 0.501 µM]
CC(=O)Nc1sc2c(c1-c1nc3ccccc3s1)CCN(C(C)C)C2 | – | inactive: -13.6%

Whole records as entered above. Values in the order: Potency | activity change, negative = inhibition
`COCCC(=O)Nc1c(-c2ccccc2)c2cc(Br)ccc2[nH]c1=O` is entered as inconclusive: 11.2 µM [inhibitor, partial curve] | –
`CCOc1ccccc1OCCCC(=O)Nc1nc2ccccc2[nH]1` is entered as – | inactive: -17.8%

More records follow:

Structure (SMILES) | Potency | activity change, negative = inhibition
Cc1ccc(NC(=O)CSc2nc(C3CCCC3)nc3c2c(=O)n(C)c(=O)n3C)c(C)c1 | – | inactive: -1.42%
CC(C)NCc1cc(Br)ccc1OCc1ccccc1 | – | inactive: -0.563%
O=C(Nc1ccc(S(=O)(=O)Nc2nccs2)cc1)c1ccc(=O)[nH]c1 | – | inactive: -4.92%
COC(=O)c1ccc(C(=O)Nc2ccc3nc(-c4cccnc4)[nH]c3c2)cc1 | – | inactive: 1.94%
COc1ccccc1N(CC(=O)NCCSc1ccc(Cl)cc1)S(C)(=O)=O | inconclusive: 25.1 µM [inhibitor, single point] | –
Cc1ccc(S(=O)(=O)NCC(=O)OCC(=O)c2cc(C)n(-c3ccccc3)c2C)cc1 | – | inactive: -9.03%
COc1ccccc1NS(=O)(=O)c1c(C(=O)N2CCCC2)c(C)n(C)c1C | inconclusive: 3.55 µM [inhibitor, partial curve] | –
CC(=O)c1sc2nsc(SCCN3CCOCC3)c2c1N | inconclusive: 11.2 µM [inhibitor, partial curve] | –
Cc1ccc(Cl)cc1NC(=O)C(C)n1nnc2sc(-c3ccccc3)cc2c1=O (centres undefined) | active: 31.6 µM | –
CCN(CC(=O)N1CCCC1)S(=O)(=O)c1ccc(OC)cc1 | inconclusive: 39.8 µM [inhibitor, single point] | –
COc1ccc(Cl)cc1C(=O)NNC(=O)c1nc2nc(C)cc(C)n2n1 | inconclusive: 39.8 µM [inhibitor, single point] | –
C[C@H](CCC(=O)O)[C@H]1CC[C@@H]2[C@H]3[C@@H](CC[C@@]21C)[C@]1(C)CC[C@H](O)C[C@@H]1C[C@@H]3O | – | inactive: -6.64% [at 21.4 µM]
CCOC(=O)C1CCCN(C(=O)C2CCN(S(=O)(=O)N3CCC4(CC3)OCCO4)CC2)C1 (centres undefined) | inconclusive: 10 µM [inhibitor, partial curve, poor fit] | –
COc1cc(/C=C2/NC(=O)N(CC(=O)Nc3cccc(C)c3)C2=O)ccc1OCC(N)=O | – | inactive: -0.304%
Cc1ccc(CC(CC(=O)O)C(=O)NCC23CC4CC(CC(C4)C2)C3)cc1 (centres undefined) | inconclusive: 0.708 µM [inhibitor, single point] | –
CN1C(=O)CSC1=Nc1ccc(F)cc1 | inconclusive: 39.8 µM [inhibitor, single point] | –
COc1cc2c(cc1NC(=O)CSc1nnc(Cc3cccs3)n1Cc1ccco1)oc1ccccc12 | – | inactive: -13.2%
O=C(O)c1ccccc1C(=O)NCc1ccc(F)cc1 | – | inactive: 18.3%
C/C(=N\N=C1\NC(=O)C(CC(=O)Nc2ccccc2F)S1)C1CCCCC1 (centres undefined) | inconclusive: 0.631 µM [inhibitor, full curve, poor fit] | –
CCOc1ccccc1C(=O)N(Cc1ccc(C)o1)C1CCS(=O)(=O)C1 (centres undefined) | – | inactive: -1.07%
Cc1[nH]c(/C=C2/C(=O)Nc3ccc(S(=O)(=O)Cc4c(Cl)cccc4Cl)cc32)c(C)c1C(=O)N1CCCC1CN1CCCC1 (centres undefined) | inconclusive: 39.8 µM [inhibitor, single point] | –
Cc1ccc([C@@H]2CC=C(C(=O)O)[C@H](c3ccc(C(C)(C)C)cc3)N2S(=O)(=O)c2ccc(C)cc2)cc1 | inconclusive: 31.6 µM [inhibitor, single point] | –
COc1cc(NC(=O)N2CCC(CN3CCCC3)CC2)cc(OC)c1OC | – | inactive: -11.5%

Structure (SMILES) | Potency | activity change, negative = inhibition
Cc1cc(C)cc(N(C(=O)C(F)(F)F)C(C(=O)NC2CCCCC2)c2cccs2)c1 (centres undefined) | inconclusive: 5.62 µM [inhibitor, single point] | –
CCCCCc1c(C)[nH]c2nc3ccccc3n2c1=O | inconclusive: 0.447 µM [inhibitor, partial curve, poor fit] | –
Cc1[nH]n(C(N)=S)c(=O)c1N=Nc1ccccc1C(F)(F)F | – | inactive: 6.11%
CC1CCCCC1NC(=O)c1cc2c(=O)n3ccccc3nc2n1C (centres undefined) | inconclusive: 28.2 µM [inhibitor, single point] | –
CCOc1ccc(NC(=O)N(C2CCCCC2)C(C)c2ccncc2)cc1 (centres undefined) | inconclusive: 7.08 µM [inhibitor, single point] | –
CC/C=C\C/C=C\C/C=C\CCCCCCCCCC(=O)O | – | inactive: 6.26%
Cc1ccn2cc(CNS(=O)(=O)c3ccc4ccccc4c3)nc2c1 | inconclusive: 0.631 µM [inhibitor, single point] | –
Cc1ccc(NC(=O)CN2C(=O)S/C(=C/c3ccc(O)c([N+](=O)[O-])c3)C2=O)cc1C | inconclusive: 28.2 µM [inhibitor, single point] | –
O=C(COc1ccccc1)Nc1cc(NC(=O)COc2ccccc2)cc(C(=O)O)c1 | inconclusive: 0.708 µM [inhibitor, single point] | –
CCS(=O)(=O)N1CCC(C(=O)NC2CCCCC2)CC1 | inconclusive: 28.2 µM [inhibitor, single point] | –
CCc1ccc(OCc2n[nH]c(=S)n2C(C)CCCC(C)C)cc1 (centres undefined) | – | inactive: -14.7%
COc1cc(CN2CCNC(=O)C2CC(=O)O)cc(OC)c1 (centres undefined) | inconclusive: 11.2 µM [inhibitor, partial curve, poor fit] | –
CCCc1ccc2oc(C(=O)N3CCNC(=O)C3CC(=O)OC)c(C)c2c1 (centres undefined) | inconclusive: 28.2 µM [inhibitor, partial curve] | –
COc1ccc2c3c(c(=O)oc2c1)C1O[C@](CCCCN2C(=O)c4ccccc4C2=O)(Cc2c1ccc1ccccc21)O3 | inconclusive: 1.26 µM [inhibitor, single point] | –
CCOC(=O)CN1CC23C=CC(O2)C(C(=O)Nc2ccc(F)cc2)C3C1=O (centres undefined) | inconclusive: 0.112 µM [inhibitor, full curve, poor fit] | –
O=C(Nc1ccccc1)c1nnsc1S(=O)(=O)c1ccc(Cl)cc1 | inconclusive: 20 µM [inhibitor, partial curve, poor fit] | –
Cc1ccc(NC(=O)COC(=O)c2ccc(S(=O)(=O)NCc3ccco3)cc2)cc1 | – | inactive: -4.94%
O=C(O)/C=C/c1ccc([N+](=O)[O-])o1 | – | inactive: -7.81%
CCOc1ccc(S(=O)(=O)NCCc2sc3nc(-c4ccc(F)cc4)nn3c2C)cc1 | – | inactive: -1.54%
c1ccc2cc(CCCc3cc4ccccc4cn3)ncc2c1 | inconclusive: 22.4 µM [inhibitor, single point] | –
Cc1ccc(S(=O)(=O)n2cnc3ccccc32)cc1[N+](=O)[O-] | inconclusive: 8.91 µM [inhibitor, full curve, poor fit] | –
Cc1cccc(Nc2nc3ccccc3n3nnnc23)c1 | inconclusive: 7.08 µM [inhibitor, single point] | –
CC(=O)c1c(C)[nH]c(C(=O)Nc2ccc(Cl)cc2)c1C | – | inactive: -4.12%
